From US20180371053A1 (UNIVERSITY OF NORTH CAROLINA AT CHAPEL HILL, published 2018)
These are yes or no findings as the source states them, for the method shown. Some binding calls cover weakened binding; strength is not graded here.

Assays:
[1] = molecular target: T1, human 2Ig-B7-H3 (human) (UniProt Q5ZPR3); assay: flow cytometry on Raji clones expressing 2Ig-hB7-H3
T1 sequence (looked up): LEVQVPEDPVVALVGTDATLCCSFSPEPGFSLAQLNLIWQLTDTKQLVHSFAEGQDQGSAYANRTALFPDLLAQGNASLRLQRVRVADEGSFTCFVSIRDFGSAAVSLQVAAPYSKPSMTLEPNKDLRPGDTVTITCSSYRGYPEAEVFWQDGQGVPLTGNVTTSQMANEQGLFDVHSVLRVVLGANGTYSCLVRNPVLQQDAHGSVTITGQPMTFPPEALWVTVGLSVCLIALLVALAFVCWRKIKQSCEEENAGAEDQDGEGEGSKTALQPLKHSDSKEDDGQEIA

[2] = molecular target: T2, human B7-H3 (CD276) naturally expressed on pancreatic cancer (PDAC) cells and tissues (human) (UniProt Q5ZPR3); assay: flow cytometry of PDAC cell lines stained with mAb 376.96
T2 sequence (looked up): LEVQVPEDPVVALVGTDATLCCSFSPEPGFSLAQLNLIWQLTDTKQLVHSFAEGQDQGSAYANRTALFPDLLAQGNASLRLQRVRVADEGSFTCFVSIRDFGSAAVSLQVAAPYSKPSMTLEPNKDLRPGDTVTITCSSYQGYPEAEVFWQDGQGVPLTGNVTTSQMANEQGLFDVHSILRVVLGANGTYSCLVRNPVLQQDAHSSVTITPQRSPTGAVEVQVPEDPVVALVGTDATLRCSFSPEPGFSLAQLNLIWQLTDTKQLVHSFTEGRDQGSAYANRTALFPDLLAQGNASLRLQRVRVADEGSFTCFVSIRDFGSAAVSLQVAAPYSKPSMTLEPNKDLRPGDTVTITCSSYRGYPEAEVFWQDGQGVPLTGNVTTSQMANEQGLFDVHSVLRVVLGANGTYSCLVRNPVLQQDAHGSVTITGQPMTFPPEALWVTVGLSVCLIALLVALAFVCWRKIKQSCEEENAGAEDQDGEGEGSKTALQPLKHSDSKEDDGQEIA

[3] = molecular target: T2, human B7-H3 (CD276) naturally expressed on pancreatic cancer (PDAC) cells and tissues (human); assay: immunohistochemistry of frozen PDAC tissue with mAb 376.96 at 1 µg/mL

Measured: binding

B1: anti-B7-H3 mAb 376.96 (antibody, V domains shown)
VH: EVQLVESGGGLVKPGGSLKLSCEASRFTFSSYAMSWVRQTPEKRLEWVAAISGGGRYTYYPDSMKGRFTISRDNAKNFLYLQMSSLRSEDTAMYYCARHYDGYLDYWGQGTTLTVSS
VL: DIVMTQSHKFMSTSIGARVSITCKASQDVRTAVAWYQQKPGQSPKLLIYSASYRYTGVPDRFTGSGSGTDFTFTISSVQAEDLAVYYCQQHYGTPPWTFGGGTKLEIK
notes: The residue ranges are my derivation
binds: [1] | [2] | [3]
